Assay results reported in the supplement of paper PMC12889115.
This is one part of the list. These are raw signals, not scaled to a control.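 First-pass screen: polymyxin B was added at a level that permeabilizes the Salmonella outer membrane while sparing the inner membrane. DMSO wells, with and without polymyxin B, defined maximum growth. Because plates differed from one another, each plate's data were ranked separately and the compounds with the lowest OD600 were carried forward as hits.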

Test system: Salmonella enterica serovar Typhimurium SL1344
Experiment: bacterial growth OD600 after 18 h with compound and polymyxin B; higher = more bacterial growth (less inhibition)
Conditions: 50 µM, Mueller-Hinton broth

Row | SMILES | bacterial growth OD600 (polymyxin B 0.75 µg/mL) | bacterial growth OD600 (polymyxin B 1 µg/mL)
1 | CCC(C)n1cc(C(=O)N2CCCCCC2)c(=O)c(C(=O)N2CCN(Cc3cccc(F)c3)CC2)c1 (stereo not drawn) | 0.811 | 
2 | CN(CC1CCOCC1)C(=O)c1ccc2nc(Cc3cccc(Cl)c3)oc2c1 |  | 0.82
3 | CSc1ccc(CN2CCCC(c3[nH]ncc3CC(C)C)C2)cc1 (stereo not drawn) | 0.838 | 
4 | C=CCNC(=O)NC1CC(=O)N(Cc2cccc3ccccc23)C1 (stereo not drawn) |  | 0.863
5 | COc1cc(OC)cc(C(=O)NCC2CCCN(C(=O)CCn3nccc3C)C2)c1 (stereo not drawn) | 0.821 | 
6 | COc1cc(CC(=O)N2CCOc3ccc(CN4CCCCC4CO)cc3C2)cc(OC)c1OC (stereo not drawn) | 0.876 | 
7 | COCCN(C)c1ccc(C(=O)N2CCCC(c3ccccc3)CC2)cn1 (stereo not drawn) |  | 0.805
8 | Cc1ccc2[nH]c(C(=O)N3CCC(CCC(=O)NC4CC4)CC3)c(C)c2c1 |  | 0.811
9 | CC(C)CCNc1ccc(C(=O)N2CCCN(c3ncccn3)CC2)cn1 | 0.757 | 
10 | CC(C)=CC(=O)N1CCCC(Nc2ccc(C)c(C)c2)C1 (stereo not drawn) |  | 0.842
11 | COc1ccccc1CCC(=O)N1CCC2(CC1)CC2C(=O)NCC1(c2ccccc2)CCOCC1 (stereo not drawn) | 0.804 | 
12 | Cc1cc(C(=O)NCC2CCCN(Cc3nc(-c4cccs4)oc3C)C2)no1 (stereo not drawn) |  | 0.966
13 | COc1ccc(/C=C/CN2CCC(CO)(Cc3ccc(OC)cc3)CC2)cc1 | 0.708 | 
14 | COCCn1cc(C(=O)NCC2(c3ccccc3)CCCC2)c(=O)c(C(=O)N2CCCC(C)C2)c1 (stereo not drawn) | 0.325 | 
15 | CC(C)(CNC1CCN(c2ccc(C(=O)NCc3ccc4c(c3)OCO4)cc2)CC1)N1CCOCC1 | 0.815 | 
16 | CCCCC1CN(CCC(=O)NCCc2ccncc2)Cc2ccccc2O1 (stereo not drawn) | 0.761 | 
17 | COc1ccc(CN2CCN(C(C)C)CC2)cc1OCC(O)CN1CCCCCCC1 (stereo not drawn) | 0.775 | 
18 | COCCN1CCN(Cc2cn(-c3ccccc3C)nc2-c2ccc(OC)c(F)c2)CC1 |  | 1.1

Look-ups from the results shown:
Entry of `COc1cc(OC)cc(C(=O)NCC2CCCN(C(=O)CCn3nccc3C)C2)c1` (stereo not drawn) under bacterial growth OD600 (polymyxin B 0.75 µg/mL): 0.821
Entry of `COc1ccc(CN2CCN(C(C)C)CC2)cc1OCC(O)CN1CCCCCCC1` (stereo not drawn) under bacterial growth OD600 (polymyxin B 0.75 µg/mL): 0.775
